Source: patent publication US12016336B2 (priority 2020, dated 2024)
Structures can show the parent of a compound that is named as a salt. Some results were stated once for a whole list of compounds, not compound by compound.

Type: physicochemical
Settings: 85° C., versus Example 10

CCCCOP(=S)(S)OCCCC [Example 1, Dibutyldithiophosphate Ammonium Salt]
Rate of hydrolysis within a factor of the rate of Example 10: ≤ 2 ×
